This is an account of results in PMC8125419.

The chains behind the UniProt entries cited, without tags or fusion partners.
UniProt Q9Y6K9: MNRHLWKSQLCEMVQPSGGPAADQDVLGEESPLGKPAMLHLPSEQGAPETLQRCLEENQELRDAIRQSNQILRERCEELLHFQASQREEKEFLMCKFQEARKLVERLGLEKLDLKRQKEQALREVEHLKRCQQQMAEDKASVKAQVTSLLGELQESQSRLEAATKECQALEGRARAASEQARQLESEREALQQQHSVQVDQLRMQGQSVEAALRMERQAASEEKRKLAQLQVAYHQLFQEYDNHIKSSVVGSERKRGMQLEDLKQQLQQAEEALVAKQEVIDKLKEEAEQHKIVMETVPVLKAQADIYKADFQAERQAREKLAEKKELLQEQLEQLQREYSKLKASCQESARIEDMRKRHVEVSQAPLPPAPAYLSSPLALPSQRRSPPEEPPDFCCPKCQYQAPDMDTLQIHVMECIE

For assay [1], the target named is T1, IKKα (human (endogenous in NPC cells)) (UniProt O15111).
T1 sequence: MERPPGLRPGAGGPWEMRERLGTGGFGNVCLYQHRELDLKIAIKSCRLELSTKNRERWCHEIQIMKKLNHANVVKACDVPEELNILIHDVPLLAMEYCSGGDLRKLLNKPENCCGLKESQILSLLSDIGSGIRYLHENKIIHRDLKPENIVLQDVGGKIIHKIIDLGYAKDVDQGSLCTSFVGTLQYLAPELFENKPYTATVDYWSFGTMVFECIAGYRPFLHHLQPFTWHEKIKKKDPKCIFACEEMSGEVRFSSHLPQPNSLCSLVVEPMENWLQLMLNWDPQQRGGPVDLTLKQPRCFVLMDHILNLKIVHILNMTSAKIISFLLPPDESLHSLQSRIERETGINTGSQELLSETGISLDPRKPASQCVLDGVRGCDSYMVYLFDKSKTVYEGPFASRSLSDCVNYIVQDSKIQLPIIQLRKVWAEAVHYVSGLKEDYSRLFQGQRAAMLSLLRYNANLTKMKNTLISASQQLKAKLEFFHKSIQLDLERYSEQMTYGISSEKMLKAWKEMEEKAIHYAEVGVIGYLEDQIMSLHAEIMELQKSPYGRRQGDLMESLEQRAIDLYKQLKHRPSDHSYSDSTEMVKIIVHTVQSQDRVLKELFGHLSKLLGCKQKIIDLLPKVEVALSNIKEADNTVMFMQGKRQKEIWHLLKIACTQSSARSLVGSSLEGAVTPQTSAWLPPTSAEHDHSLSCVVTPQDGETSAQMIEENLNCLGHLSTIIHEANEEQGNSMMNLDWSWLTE
Kind of assay: co-IP; lysates of pC12-transfected and control NPC cells (24 h); immunoprecipitated with anti-IKKα antibody (the legend says anti-IKKβ), Protein A/G magnetic beads; western blot for hCasp12 and NEMO.

Assay [2] deals with NF-κB essential modulator (NEMO) (human (endogenous in NPC cells)) (UniProt Q9Y6K9). Kind of assay: co-IP; lysates of pC12-transfected and control NPC cells (24 h); immunoprecipitated with anti-NEMO antibody, Protein A/G magnetic beads; western blot with the indicated antibodies. On the technique in general: In western blotting, separated proteins are transferred to a membrane and probed.

Assay [3] deals with T2, human Caspase 12 (hCasp12), GFP-tagged, expressed from pC12 (human) (UniProt Q6UXS9).
T2 sequence: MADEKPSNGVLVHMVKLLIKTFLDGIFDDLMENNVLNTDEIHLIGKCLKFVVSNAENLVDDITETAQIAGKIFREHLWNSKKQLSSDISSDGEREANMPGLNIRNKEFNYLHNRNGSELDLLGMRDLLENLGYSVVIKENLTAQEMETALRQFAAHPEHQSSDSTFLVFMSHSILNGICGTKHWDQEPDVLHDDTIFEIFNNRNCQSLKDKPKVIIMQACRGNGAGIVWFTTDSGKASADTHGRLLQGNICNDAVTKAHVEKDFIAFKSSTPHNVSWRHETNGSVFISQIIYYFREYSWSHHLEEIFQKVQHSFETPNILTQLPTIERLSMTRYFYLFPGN
As to the kind of experiment: co-IP; lysates of pC12-transfected NPC cells (24 h); immunoprecipitated with anti-hCasp12 antibody, Protein A/G magnetic beads; western blot for IKKα and IKKβ.

Assay [4] has as its target NF-κB essential modulator (NEMO) (human (endogenous in NPC cells)), Q9Y6K9. Kind of assay: co-IP; lysates of pC12-transfected and control NPC cells (24 h); immunoprecipitated with anti-NEMO antibody, Protein A/G magnetic beads; western blot with the indicated antibodies. Conditions: remark: other sources report otherwise.

No constants are given. Whether binding was seen depends on the method and setting. Binding seen in cells or lysates may run through a third protein. Some entries that bind do so weakly or less than the wild type. For some of these results: Where a sequence is shown, tags or fusion partners need not be part of it.

B1: human Caspase 12 (hCasp12), GFP-tagged, expressed from pC12 (protein, UniProt Q6UXS9 1-341)
chain: MADEKPSNGVLVHMVKLLIKTFLDGIFDDLMENNVLNTDEIHLIGKCLKFVVSNAENLVDDITETAQIAGKIFREHLWNSKKQLSSDISSDGEREANMPGLNIRNKEFNYLHNRNGSELDLLGMRDLLENLGYSVVIKENLTAQEMETALRQFAAHPEHQSSDSTFLVFMSHSILNGICGTKHWDQEPDVLHDDTIFEIFNNRNCQSLKDKPKVIIMQACRGNGAGIVWFTTDSGKASADTHGRLLQGNICNDAVTKAHVEKDFIAFKSSTPHNVSWRHETNGSVFISQIIYYFREYSWSHHLEEIFQKVQHSFETPNILTQLPTIERLSMTRYFYLFPGN
As to B1, the binding entry in assay [1] was “binds”; in assay [2] it was “no binding”.

B2: IKKβ (protein, UniProt O14920 1-756)
chain: MSWSPSLTTQTCGAWEMKERLGTGGFGNVIRWHNQETGEQIAIKQCRQELSPRNRERWCLEIQIMRRLTHPNVVAARDVPEGMQNLAPNDLPLLAMEYCQGGDLRKYLNQFENCCGLREGAILTLLSDIASALRYLHENRIIHRDLKPENIVLQQGEQRLIHKIIDLGYAKELDQGSLCTSFVGTLQYLAPELLEQQKYTVTVDYWSFGTLAFECITGFRPFLPNWQPVQWHSKVRQKSEVDIVVSEDLNGTVKFSSSLPYPNNLNSVLAERLEKWLQLMLMWHPRQRGTDPTYGPNGCFKALDDILNLKLVHILNMVTGTIHTYPVTEDESLQSLKARIQQDTGIPEEDQELLQEAGLALIPDKPATQCISDGKLNEGHTLDMDLVFLFDNSKITYETQISPRPQPESVSCILQEPKRNLAFFQLRKVWGQVWHSIQTLKEDCNRLQQGQRAAMMNLLRNNSCLSKMKNSMASMSQQLKAKLDFFKTSIQIDLEKYSEQTEFGITSDKLLLAWREMEQAVELCGRENEVKLLVERMMALQTDIVDLQRSPMGRKQGGTLDDLEEQARELYRRLREKPRDQRTEGDSQEMVRLLLQAIQSFEKKVRVIYTQLSKTVVCKQKALELLPKVEEVVSLMNEDEKTVVRLQEKRQKELWNLLKIACSKVRGPVSGSPDSMNASRLSQPGQLMSQPSTASNSLPEPAKKSEELVAEAHNLCTLLENAIQDTVREQDQSFTALDWSWLQTEEEEHSCLEQAS
Consider B2, for which the binding result in assay [3] is given as “binds”.

B3: IKKα, O15111 1-745 (protein)
chain: MERPPGLRPGAGGPWEMRERLGTGGFGNVCLYQHRELDLKIAIKSCRLELSTKNRERWCHEIQIMKKLNHANVVKACDVPEELNILIHDVPLLAMEYCSGGDLRKLLNKPENCCGLKESQILSLLSDIGSGIRYLHENKIIHRDLKPENIVLQDVGGKIIHKIIDLGYAKDVDQGSLCTSFVGTLQYLAPELFENKPYTATVDYWSFGTMVFECIAGYRPFLHHLQPFTWHEKIKKKDPKCIFACEEMSGEVRFSSHLPQPNSLCSLVVEPMENWLQLMLNWDPQQRGGPVDLTLKQPRCFVLMDHILNLKIVHILNMTSAKIISFLLPPDESLHSLQSRIERETGINTGSQELLSETGISLDPRKPASQCVLDGVRGCDSYMVYLFDKSKTVYEGPFASRSLSDCVNYIVQDSKIQLPIIQLRKVWAEAVHYVSGLKEDYSRLFQGQRAAMLSLLRYNANLTKMKNTLISASQQLKAKLEFFHKSIQLDLERYSEQMTYGISSEKMLKAWKEMEEKAIHYAEVGVIGYLEDQIMSLHAEIMELQKSPYGRRQGDLMESLEQRAIDLYKQLKHRPSDHSYSDSTEMVKIIVHTVQSQDRVLKELFGHLSKLLGCKQKIIDLLPKVEVALSNIKEADNTVMFMQGKRQKEIWHLLKIACTQSSARSLVGSSLEGAVTPQTSAWLPPTSAEHDHSLSCVVTPQDGETSAQMIEENLNCLGHLSTIIHEANEEQGNSMMNLDWSWLTE
In the case of B3, the binding result in assay [4] is “binds”.
